Assay results published in US9134318B2, “Detection of oxidized polypeptides” (Purdue Research Foundation, priority 2009, dated 2015).

Experiments:
[1] = tested on: carbonylated plasma proteins; experiment: iTRAQ and MALDI/TOF/TOF quantitative comparison of avidin-selected carbonylated proteins, breast cancer patients vs controls (Table 8); design: species or system Homo sapiens; details: avidin-selected carbonylated protein in plasma, breast cancer patient vs matched control, iTRAQ; repeated lines of a protein = different donors; negative = lower in cancer
[2] = tested on: carbonylated plasma proteins; experiment: MALDI/TOF/TOF identification of avidin-selected carbonylated proteins in normal human plasma (Table 6); details: MALDI-MS/MS (ABI 4800 plus)

Row | Substance | Breast cancer/control (fold change) [1] | also measured
1 | 80 kDa MCM3-associated protein | −2.1 fold change | –
2 | A1AT_HUMAN | – | Number of unique peptides assigned to the protein ([2]; Donor 4): 2
3 | APOB_HUMAN | – | Number of unique peptides assigned to the protein ([2]; Donor 1): 7.73
4 | Alpha-2-macroglobulin precursor | 2.5 fold change | –
5 | Apolipoprotein A-II precursor | 1.9 fold change | –
6 | Apolipoprotein B-100 precursor | 1.8 fold change | –
7 | Bulious pemphigoid antigen 1, isoforms | −2.5 fold change | –
8 | CO3_HUMAN | – | Number of unique peptides assigned to the protein ([2]; Donor 1): 14.7
9 | Centromere protein F | −5.5 fold change | –
10 | Complement C1q subcomponent subunit A precursor | 2.0 fold change | –
11 | Complement C1q subcomponent subunit C precursor | 1.9 fold change | –
12 | Complement C3 precursor | −1.6 fold change | –
13 | Complement C4-B precursor | 1.5 fold change | –
14 | HBB_HUMAN | – | Number of unique peptides assigned to the protein ([2]; Donor 2): 5.22
15 | Haptoglobin precursor | 2.2 fold change | –
16 | Hemoglobin subunit delta | −2.2 fold change | –
17 | Hemopexin precursor | 1.5 fold change and 2.6 fold change | –
18 | Ig heavy chain V-III region GAL | 1.9 fold change | –
19 | Ig heavy chain V-III region KOL | 1.7 fold change | –

Row | Substance | Breast cancer/control (fold change) [1] | also measured
20 | Ig heavy chain V-III region TRO | 2.1 fold change | –
21 | Ig kappa chain V-III region CLL precursor | 2.0 fold change | –
22 | Immunoglobulin J chain | 1.6 fold change | –
23 | Myosin IIIA | −1.6 fold change | –
24 | Myosin-5B | −1.5 fold change | –
25 | Myotubularin-related protein 13 | 4.7 fold change | –
26 | Nesprin-1 | −2.8 fold change | –
27 | Oxygen-regulated protein 1 | −3.0 fold change | –
28 | PROS_HUMAN | – | Number of unique peptides assigned to the protein ([2]; Donor 3): 6.33
29 | Plexin-C1 precursor | −5.1 fold change | –
30 | Serine/threonine-protein kinase TBK1 | −1.6 fold change | –
31 | Serotransferrin precursor | 2.4 fold change | –
32 | Serum albumin precursor | 2.7 fold change | –
33 | Spectrin alpha chain, erythrocyte | −4.1 fold change | –
34 | TRFE_HUMAN | – | Number of unique peptides assigned to the protein ([2]; Donor 2): 5.53
35 | Titin | −1.7 fold change | –
36 | Usherin precursor | −2.5 fold change | –
37 | Vitronectin precursor | −1.6 fold change | –
38 | Zonadhesin precursor | −7.8 fold change | –

Where “and” joins values, the source holds several entries; their conditions need not be identical. Equal entries are not always repeated.
